The values that follow are results of earlier work, collected in patent publication US20230146870A1, “METHOD TO QUANTIFY AFFINITY AND SELECTIVITY OF SMALL MOLECULES FOR PROTEINS IN LIVING CELLS” (Ohio State Innovation Foundation, priority 2021, published 2023).

pIC50: −log10 of the molar value.

A word on the pIC50: it is the negative decadic logarithm of the IC50, by convention in mol/L.

This data set has as its system microtubules in fixed cells. The note with it: read-out: IC50 in fixed cells; previously reported; cited from earlier work.

In the case of `COc1cc2c(c(OC)c1OC)-c1ccc(OC)c(=O)cc1[C@@H](NC(C)=O)CC2` [colchicine], the pIC50 is 7.66.
